Publication PMC12270201
Results are given in words; binding and its absence hold for the method and conditions named. Binding seen in cells or lysates may run through a third protein. A yes stands for co-enrichment or nearness to the bait. Other partners may have been found.

Chains of the proteins cited; added tags and fusions are not shown. Lines headed by an entry give the natural chain unless they say otherwise; changes in a name come on top. Residues count along the entry.
UniProt Q86VE9: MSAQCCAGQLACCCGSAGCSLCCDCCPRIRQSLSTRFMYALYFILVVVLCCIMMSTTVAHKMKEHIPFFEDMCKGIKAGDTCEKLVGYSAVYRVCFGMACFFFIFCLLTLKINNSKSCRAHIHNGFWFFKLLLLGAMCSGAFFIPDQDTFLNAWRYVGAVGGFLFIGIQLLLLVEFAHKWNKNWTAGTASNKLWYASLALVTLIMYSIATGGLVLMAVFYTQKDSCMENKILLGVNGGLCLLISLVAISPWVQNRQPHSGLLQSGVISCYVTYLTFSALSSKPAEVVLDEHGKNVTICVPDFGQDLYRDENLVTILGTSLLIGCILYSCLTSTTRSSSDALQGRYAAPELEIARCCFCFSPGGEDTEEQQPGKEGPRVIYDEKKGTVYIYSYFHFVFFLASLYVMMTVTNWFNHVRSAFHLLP
UniProt Q13443, residues 29-819: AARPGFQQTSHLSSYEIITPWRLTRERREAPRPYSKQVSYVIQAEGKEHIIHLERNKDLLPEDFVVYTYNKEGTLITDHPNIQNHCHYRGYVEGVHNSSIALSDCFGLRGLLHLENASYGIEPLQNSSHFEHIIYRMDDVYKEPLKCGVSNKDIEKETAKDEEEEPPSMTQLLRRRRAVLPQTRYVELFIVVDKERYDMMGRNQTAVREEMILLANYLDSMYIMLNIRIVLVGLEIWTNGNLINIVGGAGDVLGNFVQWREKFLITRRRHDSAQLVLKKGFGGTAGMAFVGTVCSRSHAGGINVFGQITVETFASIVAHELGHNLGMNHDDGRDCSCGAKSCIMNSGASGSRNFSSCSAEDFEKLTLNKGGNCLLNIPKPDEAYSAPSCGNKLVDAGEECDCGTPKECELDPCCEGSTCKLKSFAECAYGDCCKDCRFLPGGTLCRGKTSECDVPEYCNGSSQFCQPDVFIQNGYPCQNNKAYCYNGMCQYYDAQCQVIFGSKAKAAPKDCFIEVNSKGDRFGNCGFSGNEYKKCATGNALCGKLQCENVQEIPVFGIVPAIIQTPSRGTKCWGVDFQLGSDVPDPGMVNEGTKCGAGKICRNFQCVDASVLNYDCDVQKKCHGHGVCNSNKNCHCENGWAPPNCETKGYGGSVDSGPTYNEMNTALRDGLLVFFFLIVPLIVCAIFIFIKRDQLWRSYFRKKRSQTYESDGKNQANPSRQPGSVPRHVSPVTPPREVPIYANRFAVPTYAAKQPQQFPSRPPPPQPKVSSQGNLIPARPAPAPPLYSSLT
UniProt Q13444: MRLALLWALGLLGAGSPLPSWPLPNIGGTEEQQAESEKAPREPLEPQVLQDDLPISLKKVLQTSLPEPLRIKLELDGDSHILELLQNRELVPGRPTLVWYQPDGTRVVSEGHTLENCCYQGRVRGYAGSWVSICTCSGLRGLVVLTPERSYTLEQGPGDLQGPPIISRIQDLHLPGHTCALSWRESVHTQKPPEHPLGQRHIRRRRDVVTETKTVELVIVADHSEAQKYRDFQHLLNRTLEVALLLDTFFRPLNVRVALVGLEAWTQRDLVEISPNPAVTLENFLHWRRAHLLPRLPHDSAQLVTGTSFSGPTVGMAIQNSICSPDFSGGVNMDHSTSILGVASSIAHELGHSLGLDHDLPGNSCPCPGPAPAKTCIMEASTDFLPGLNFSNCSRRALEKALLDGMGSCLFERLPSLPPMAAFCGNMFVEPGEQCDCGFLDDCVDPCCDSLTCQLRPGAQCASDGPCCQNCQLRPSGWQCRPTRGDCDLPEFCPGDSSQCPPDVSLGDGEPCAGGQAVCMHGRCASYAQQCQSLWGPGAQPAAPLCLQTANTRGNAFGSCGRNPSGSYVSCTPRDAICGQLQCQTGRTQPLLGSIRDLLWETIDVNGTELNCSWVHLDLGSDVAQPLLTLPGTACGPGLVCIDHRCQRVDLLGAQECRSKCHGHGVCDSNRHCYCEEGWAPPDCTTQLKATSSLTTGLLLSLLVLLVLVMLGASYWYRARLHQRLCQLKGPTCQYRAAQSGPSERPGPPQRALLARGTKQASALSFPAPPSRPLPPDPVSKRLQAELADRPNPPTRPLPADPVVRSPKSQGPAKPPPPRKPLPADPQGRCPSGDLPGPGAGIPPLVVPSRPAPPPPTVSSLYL

Target: FLAG-tagged SERINC5 (Ser5-FLAG) (UniProt Q86VE9)
Experiment: affinity purification with mass spectrometry; Ser5-FLAG expressed in HEK293T; RIPA lysate incubated with anti-FLAG M2 magnetic beads 24 h at 4 °C; SDS-PAGE, Nano LC-MS/MS; cell surface proteins shown

Substance | binding
endogenous ADAM9 (from UniProt Q13443 29-819) | binds
endogenous ADAM15 (from UniProt Q13444) | binds
